Reference: PubChem BioAssay AID528 (NMMLSC, 2006)
Hit rate of the full screen: of about 24,000 compounds, fewer than 10 were called active. This list was built around the results that the source calls inconclusive (neither active nor inactive); the mix of calls is not that of the screen.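 The calls were made as follows: active = fluorescent ligand binding to cells raised by more than 40% of the manganese-induced maximum; inconclusive = compound's own fluorescence above 85% of the ligand control signal; inactive = the rest.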

Sequences of proteins named here, by UniProt entry; tags and fusion partners are left off.
UniProt P13612, whole entry, looked up: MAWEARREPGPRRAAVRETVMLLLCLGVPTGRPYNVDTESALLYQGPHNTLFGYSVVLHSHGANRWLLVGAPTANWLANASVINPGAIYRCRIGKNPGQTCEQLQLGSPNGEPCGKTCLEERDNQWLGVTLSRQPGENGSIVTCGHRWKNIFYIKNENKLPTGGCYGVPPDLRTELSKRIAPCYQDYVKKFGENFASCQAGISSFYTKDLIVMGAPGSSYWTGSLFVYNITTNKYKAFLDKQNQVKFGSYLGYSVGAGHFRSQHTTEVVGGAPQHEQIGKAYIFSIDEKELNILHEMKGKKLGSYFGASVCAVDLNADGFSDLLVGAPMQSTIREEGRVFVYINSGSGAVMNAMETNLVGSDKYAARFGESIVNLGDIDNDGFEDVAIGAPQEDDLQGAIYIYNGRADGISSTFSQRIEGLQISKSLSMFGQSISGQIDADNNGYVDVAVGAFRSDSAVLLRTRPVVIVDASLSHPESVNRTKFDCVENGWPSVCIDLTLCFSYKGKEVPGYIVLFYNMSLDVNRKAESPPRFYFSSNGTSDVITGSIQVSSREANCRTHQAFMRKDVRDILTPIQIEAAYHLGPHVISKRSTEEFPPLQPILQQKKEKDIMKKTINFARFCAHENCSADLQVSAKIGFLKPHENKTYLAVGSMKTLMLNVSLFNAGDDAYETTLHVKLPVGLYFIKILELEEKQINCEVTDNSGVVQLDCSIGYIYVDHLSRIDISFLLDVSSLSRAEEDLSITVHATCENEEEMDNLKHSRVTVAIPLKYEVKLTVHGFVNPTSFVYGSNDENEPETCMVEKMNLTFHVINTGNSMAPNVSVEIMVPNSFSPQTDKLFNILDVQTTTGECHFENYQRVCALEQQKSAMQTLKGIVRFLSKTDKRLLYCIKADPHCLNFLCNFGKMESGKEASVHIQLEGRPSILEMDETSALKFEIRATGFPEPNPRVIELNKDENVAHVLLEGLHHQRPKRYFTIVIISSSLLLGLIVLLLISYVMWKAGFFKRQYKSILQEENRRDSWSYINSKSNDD

What follows are compounds tested against Integrin alpha-4 (Homo sapiens) (UniProt P13612) (assay: enhancers of LDV-FITC binding to VLA-4 integrin, primary screen, Jurkat cells, flow cytometry (AID 528;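 as to activation: 0% = ligand binding without compound and 100% = manganese-stimulated maximal binding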)). Details: stronger effect = higher value, screened at 10 µM (by protocol).
In the case of `Cc1ccc(C)c(-n2c(N)c(C(N)=O)sc2=S)c1`, the activation is reported as “inconclusive”.
With `CNc1nnc(-c2cc3ccccc3oc2=O)s1` the activation was “inconclusive”.
In the case of `COc1ccccc1-c1cc(C(F)(F)F)nc(S(=O)(=O)CCCC(=O)NC(C)C)n1`, the activation is reported as “inconclusive”.
With `Cc1oc(-c2cccs2)nc1CS(=O)CC(=O)NCCc1ccccc1` (stereo unspecified) the activation was “inconclusive”.
In the case of `O=C(CN1C(=O)CCSc2ccccc21)Nc1ccc(F)cc1`, the activation is reported as inactive: 1.7%.
`Cn1c(Cn2c(=O)sc3ccccc32)nnc1SCC(=O)Nc1ccccc1F` was tested, and the activation was “inconclusive”.
In the case of `COC(=O)C1CCC(C)(C(=O)Nc2ccccc2)C1(C)C` (stereo unspecified), the activation is reported as inactive: -2%.
For `O=C(CCCn1c(=S)[nH]c2ccccc2c1=O)N1CCOCC1`, the activation was “inconclusive”.
In the case of `Cc1nc2sc(C(c3ccco3)N3CCC4(CC3)OCCO4)c(O)n2n1` (stereo unspecified), the activation is reported as “inconclusive”.
In the case of `O=C(NCc1ccco1)C1CCC(CNS(=O)(=O)c2cccc3cccnc23)CC1` (stereo unspecified), the activation is reported as “inconclusive”.
`Cc1cc(=O)oc(C)c1C(=O)NCC1COc2ccccc2O1` (stereo unspecified) was tested, and the activation was “inconclusive”.
`Cn1cnc2c1c(=O)n(Cc1ccccc1)c(=O)n2C` was tested, and the activation was “inconclusive”.
In the case of `Cc1nnc(SCC(=O)Nc2nccs2)[nH]c1=O`, the activation is reported as inactive: -7%.
With `CCOC(=O)N1CCN(c2nc(-c3ccc(OC)cc3)no2)CC1` the activation was inactive: -1%.
In the case of `CCOc1ccc(OCC)c(NC(=O)CC2Oc3ccccc3NC2=O)c1` (stereo unspecified), the activation is reported as “inconclusive”.
`Cc1cc2oc(C(=O)NC3CCS(=O)(=O)C3)c(C)c2cc1C` (stereo unspecified) was tested, and the activation was inactive: -5%.
With `COC(=O)C1=C(C(=O)c2ccc(C)cc2)C(c2ccc(O)c(OC)c2)n2nnnc2N1` (stereo unspecified) the activation was “inconclusive”.
In the case of `O=C(CC1Oc2ccccc2NC1=O)NCCCN1CCCC1=O` (stereo unspecified), the activation is reported as “inconclusive”.
`COc1ccc(OC)c(CCNC(=O)CC2Oc3ccccc3NC2=O)c1` (stereo unspecified) was tested, and the activation was “inconclusive”.
In the case of `O=C(NCc1ccccn1)C1CCN(S(=O)(=O)N2CCCC2)CC1`, the activation is reported as inactive: 0%.
For `CC(=O)c1cccc(NC(=O)CC2Oc3ccc(C)cc3NC2=O)c1` (stereo unspecified), the activation was “inconclusive”.
With `CN(CC(=O)NCc1cccs1)S(=O)(=O)c1cccc2nsnc12` the activation was inactive: 0%.
In the case of `Cc1cc(C)n2nc3nc(N4CCCC4)nc(-c4ccccc4)c3c2n1`, the activation is reported as “inconclusive”.
In the case of `COc1cccc2[nH]c3c(N4CCC(C)CC4)ncnc3c12`, the activation is reported as “inconclusive”.
In the case of `CN(Cc1ccccc1)C(=O)CCNC(=O)Cn1cnc2ccccc2c1=O`, the activation is reported as “inconclusive”.
For `CCOC(=O)CSc1nnc(CNC(=O)c2ccc(OC)c(OC)c2)n1C`, the activation was inactive: -3.3%.
In the case of `Cc1onc(-c2ccccc2Cl)c1C(=O)NCCn1c(C)cc2ccccc21`, the activation is reported as inactive: -1.5%.
For `O=C1CC(c2ccc(S(=O)(=O)N3CCN(c4ccccc4)CC3)cc2)CN1` (stereo unspecified), the activation was inactive: 4.5%.
`Cc1ccc(Cl)cc1NC(=O)Cn1cc2c(n1)CCCC2` was tested, and the activation was “inconclusive”.
`Cc1oc(C(=O)O)cc1CSCc1cc(C(=O)O)c(C)o1` was tested, and the activation was “inconclusive”.
For `COc1ccc(NC(=O)CNS(=O)(=O)c2cccc3nonc23)c(OC)c1`, the activation was inactive: 4%.
With `Cc1cc(S(=O)(=O)NCc2ccco2)c(C)s1` the activation was “inconclusive”.
With `CC(=O)N1CCCc2cc(S(=O)(=O)NC(C(=O)NC(C)c3ccccc3)C(C)C)ccc21` (stereo unspecified) the activation was “inconclusive”.
In the case of `CC(C)N1C(=O)CCC1C(=O)NCCc1ccc(Cl)cc1` (stereo unspecified), the activation is reported as “inconclusive”.
`COc1ccc(NC(=O)CSc2nnc(Cn3c(=O)sc4ccccc43)n2C)c(OC)c1` was tested, and the activation was “inconclusive”.
For `O=C(Nc1c(C(=O)N2CCCCC2)cnn1-c1ccccc1)c1ccccc1`, the activation was “inconclusive”.
`Cc1cc(Nc2ccc(C)c(Br)c2)n2nc(C)nc2n1` was tested, and the activation was “inconclusive”.
For `COc1ccc(CCn2c(=S)[nH]c3cc(C(=O)NCc4ccco4)ccc3c2=O)cc1OC`, the activation was “inconclusive”.
`O=C(c1ccc(N2CCCCS2(=O)=O)cc1)N1CCN(c2ccc(N3CCOCC3)nn2)CC1` was tested, and the activation was inactive: 3%.
With `O=C(NCC(c1cccnc1)N1CCN(c2ccccc2F)CC1)OCc1ccccc1` (stereo unspecified) the activation was “inconclusive”.
`Cc1ccc(-c2nc(CSCC(=O)N3CCN(C(=O)c4ccco4)CC3)c(C)o2)cc1` was tested, and the activation was “inconclusive”.
`O=C(O)c1cc(S(=O)(=O)N2CCCCC2)ccc1F` was tested, and the activation was “inconclusive”.
For `COc1ccc(CC(=O)OCC(=O)NC(=O)NC2CCCCC2)cc1`, the activation was inactive: 2%.
In the case of `O=C(CCN1CCN(CCC(=O)c2ccccc2)CC1)c1ccccc1`, the activation is reported as “inconclusive”.
For `O=C1c2ccccc2-c2ncnc3c(N4CCOCC4)cc(N4CCOCC4)c1c23`, the activation was “inconclusive”.
For `CCc1ccc(S(=O)(=O)NCc2csc(C)n2)s1`, the activation was “inconclusive”.
`COc1ccc2oc(=O)c(-c3nnc(NCc4ccco4)s3)cc2c1` was tested, and the activation was “inconclusive”.
`CCOC(=O)N1CCC(Nc2c(NCCCN3CCN(c4ccc(OC)cc4)CC3)c(=O)c2=O)CC1` was tested, and the activation was inactive: -4%.
In the case of `Cc1cc(NC(=O)CC(C)(C)C)nc2c1c(=O)oc1ccccc12`, the activation is reported as “inconclusive”.
With `Cc1ccc2nc(/C(C#N)=N/O)[nH]c2c1` the activation was “inconclusive”.
`Cc1cc(NC(=O)c2cc(CC(C)C)on2)n(-c2ccccc2)n1` was tested, and the activation was “inconclusive”.
`COC(=O)c1ccc2c(=O)n(C3CCCCC3)c(SCC#N)nc2c1` was tested, and the activation was “inconclusive”.
With `CCc1ccc(NC(=O)CSc2nc3c(c(=O)n(C)c(=O)n3C)n2C)cc1` the activation was “inconclusive”.
`Cn1c(=O)cc(SCC(=O)Nc2ccccn2)c2ccccc21` was tested, and the activation was “inconclusive”.
For `Cc1c(C(=O)N2CCCC2)oc2c1-c1[nH]ncc1CC2`, the activation was “inconclusive”.
`CCN1CCN(c2nc3c(C)cccn3c(=O)c2/C=C(\C#N)S(=O)(=O)c2ccccc2)CC1` was tested, and the activation was “inconclusive”.
For `Cc1cc(C)c(S(=O)(=O)Nc2ccc(OCC(=O)O)cc2)c(C)c1`, the activation was inactive: 3%.
`O=c1oc2c3c4c(cc2s1)CCCN4CCC3` was tested, and the activation was “inconclusive”.
For `CCC(C)[C@@H](C(=O)Nc1ccc(OC)c(OC)c1)N1Cc2ccccc2C1=O` (stereo partly specified), the activation was “inconclusive”.
With `COc1ccccc1N1CCN(C(=O)CSc2nc(-c3ccccc3)cc(=O)[nH]2)CC1` the activation was “inconclusive”.
`CC1(O)CC(=O)N(c2ccccc2)O1` (stereo unspecified) was tested, and the activation was “inconclusive”.
With `COc1ccc(C2c3c(oc4ccccc4c3=O)C(=O)N2c2ccccn2)cc1OC` (stereo unspecified) the activation was “inconclusive”.
For `CCOC(=O)c1ccccc1Nc1cc(C)nc2nc(C)nn12`, the activation was “inconclusive”.
`CCCCN(CC)CCNC(=O)c1cc2c(C)nc3ccccc3c2o1` was tested, and the activation was inactive: 2.5%.
With `O=C(Cn1ncc2c(=O)oc3ccccc3c21)N1CCCc2ccccc21` the activation was “inconclusive”.
For `O=C(CSc1ncc(-c2ccc(F)cc2)[nH]1)N1CCCCC1`, the activation was inactive: 1%.
`Cc1ccc2c(c1)c1c(n2CC(O)CNC(CO)(CO)CO)CCCC1` (stereo unspecified) was tested, and the activation was inactive: 5.5%.
For `O=C(c1ccco1)N1CCN=C1SCc1c(F)cccc1Cl`, the activation was “inconclusive”.
For `CCOC(=O)Cc1nn2c(=O)cc(C)nc2s1`, the activation was inactive: 0%.
In the case of `O=C(O)CCc1ccc(-c2cccs2)n1CCC(=O)O`, the activation is reported as “inconclusive”.
In the case of `O=C1CCCC2=C1C(c1cccs1)n1nc(SCc3ccccc3F)nc1N2` (stereo unspecified), the activation is reported as “inconclusive”.
`Cc1nnc(NC(=O)c2ccc(S(=O)(=O)N(C)Cc3ccccc3)cc2)o1` was tested, and the activation was “inconclusive”.
In the case of `COCCCNC(=O)CS(=O)Cc1nc(-c2ccccc2C)oc1C` (stereo unspecified), the activation is reported as “inconclusive”.
`CCOC(=O)CSc1nnc(CNC(=O)Cc2ccccc2)n1-c1ccccc1OC` was tested, and the activation was inactive: -3%.
For `O=C(CN1C(=O)CCSc2ccccc21)Nc1ccc2c(c1)OCCO2`, the activation was inactive: -9%.
For `CCC(C)NC(=O)c1cn(C)c(=O)c2cc(OC)c(OC)cc12` (stereo unspecified), the activation was inactive: -2%.
With `Cc1ccc(S(=O)(=O)NCCOC(=O)Nc2sc(=S)n(C)c2C)cc1` the activation was “inconclusive”.
With `O=C(Nc1ccc(F)cc1)C1CCCN(S(=O)(=O)c2cccc3cccnc23)C1` (stereo unspecified) the activation was inactive: -7%.
`COC(=O)c1ccc(CSc2nc(-c3ccc(OC)cc3)nc3c2c(=O)n(C)c(=O)n3C)o1` was tested, and the activation was inactive: 5%.
In the case of `CCOC(=O)N1CCC(NC(=O)c2ccc3c(c2)sc2nc(-c4ccccc4)cn23)CC1`, the activation is reported as “inconclusive”.
With `Cc1ccc2nc(N3CCOCC3)c3nncn3c2c1` the activation was “inconclusive”.
`Cc1c(C(=O)Nc2ccc(F)cc2)oc2ccc(S(=O)(=O)N3CCCC3)cc12` was tested, and the activation was “inconclusive”.
With `CCC(=O)N1CCN(c2nc(-c3ccccc3)c3c(c2C#N)CCCC3)CC1` the activation was inactive: -5.5%.
For `O=C(NCc1ccco1)c1cccc(S(=O)(=O)N2CCCCC2)c1`, the activation was inactive: 2%.
For `CC(C)c1cc(CN2CCN(CCC#N)CC2)cc(C(C)C)c1O`, the activation was “inconclusive”.
`Cc1ccccc1-c1ccc(C=Nc2c(C)n(C)n(-c3ccccc3)c2=O)o1` was tested, and the activation was “inconclusive”.
With `C=CCSc1nc(N)c(C(=O)Nc2ccccc2C)cc1C(N)=O` the activation was inactive: 5.5%.
With `CCOC(=O)C1=C(O)CCn2c1nc1ccccc12` the activation was “inconclusive”.
With `Cc1ccccc1C1CC(c2ccc(Br)cc2)Nc2nc(N)nn21` (stereo unspecified) the activation was “inconclusive”.
With `CCC1CCCCN1c1nc(-c2ccncc2)nc2ccccc12` (stereo unspecified) the activation was inactive: 5%.
For `COc1ccc(Cl)c(NC(=O)NCCN2CCN(c3ccccc3)CC2)c1`, the activation was inactive: -3%.
In the case of `O=C(NCc1ccccc1)c1cc(=O)nc2sc(-c3ccccc3)nn12`, the activation is reported as “inconclusive”.
For `Cc1ccccc1CN1CCN(CC(=O)NCc2ccc3c(c2)OCO3)C1=O`, the activation was “inconclusive”.
`CCCNC(=O)CS(=O)Cc1nc(-c2ccccc2C)oc1C` (stereo unspecified) was tested, and the activation was “inconclusive”.
`CCOCCOC(=O)C1=C(C)N(C)C(=O)NC1c1cc(Cl)c(O)c(OC)c1` (stereo unspecified) was tested, and the activation was inactive: 1%.
`COc1ccc2cnn(-c3ccccc3)c(=O)c2c1OC` was tested, and the activation was inactive: -2.5%.
In the case of `Cc1ccc(NC(=O)c2ccc(NS(=O)(=O)c3c(C)noc3C)cc2)cc1C`, the activation is reported as inactive: -15.3%.
With `O=C(NC1CCCC1)C(c1ccc(Cl)cc1)N1CCOCC1` (stereo unspecified) the activation was inactive: 6%.
With `O=S(=O)(NC1CCCc2ccccc21)c1cnc[nH]1` (stereo unspecified) the activation was “inconclusive”.
For `Cc1c(C(=O)O)oc2ccc(S(=O)(=O)N3CCC(C)CC3)cc12`, the activation was “inconclusive”.
With `Cc1ccc(Cl)cc1N1CCN(C(=O)Cn2ccc3ccccc3c2=O)CC1` the activation was “inconclusive”.
